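Methionyl-tRNA synthetase (putative), Leishmania donovani (UniProt E9BF75). Primary screen of methionyl-tRNA synthetase; the read-out is not stated. The test concentration is not given. Values are per cent inhibition. About 68,000 compounds were tested under these conditions; 0.035% (about 24) showed 50% or more at least once.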

The chains behind the UniProt entries cited, without tags or fusion partners.
UniProt E9BF75, entry or part of it: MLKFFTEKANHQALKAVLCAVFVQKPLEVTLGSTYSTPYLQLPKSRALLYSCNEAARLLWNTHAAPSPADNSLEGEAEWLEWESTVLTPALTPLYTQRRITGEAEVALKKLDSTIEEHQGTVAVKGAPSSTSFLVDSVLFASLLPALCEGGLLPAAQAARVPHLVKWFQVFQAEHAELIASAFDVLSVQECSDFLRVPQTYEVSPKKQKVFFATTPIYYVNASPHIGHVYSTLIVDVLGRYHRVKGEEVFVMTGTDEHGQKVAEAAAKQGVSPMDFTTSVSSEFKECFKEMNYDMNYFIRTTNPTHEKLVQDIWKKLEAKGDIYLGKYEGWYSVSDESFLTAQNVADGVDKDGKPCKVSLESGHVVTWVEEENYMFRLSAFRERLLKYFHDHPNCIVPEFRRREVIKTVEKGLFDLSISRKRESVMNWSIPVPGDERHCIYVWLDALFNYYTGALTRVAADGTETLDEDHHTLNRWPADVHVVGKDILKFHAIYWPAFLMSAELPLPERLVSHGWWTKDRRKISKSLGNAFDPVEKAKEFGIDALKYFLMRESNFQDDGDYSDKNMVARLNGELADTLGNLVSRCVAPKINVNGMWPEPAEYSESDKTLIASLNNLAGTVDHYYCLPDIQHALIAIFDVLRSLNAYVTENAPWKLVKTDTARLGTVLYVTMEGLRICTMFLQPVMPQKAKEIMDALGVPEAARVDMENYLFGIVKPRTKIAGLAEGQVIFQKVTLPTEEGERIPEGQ

All values are in %. How 0% and 100% were set is not recorded. Most values in the screen are low, and negative values occur. The compounds are a random part of those screened.

compound,inhibition
COCCCNC(=O)CN(C)C(=O)c1cc(C)ccc1N(C)C(C)C,13.02%
CN1CCOC[C@H]1c1nc(-c2ccccc2)c[nH]1,5.495%
CCc1noc(C2CC(=O)N(CCN(C)C)C2)n1 (stereo unspecified),10.7%
O=C(c1coc2ccccc12)N1CCS(=O)(=O)CC1,16.55%
O=C(c1ccccc1Cl)N1CCN(CCc2ccccn2)CC1,11.66%
O=C(Cc1ccc2c(c1)OCO2)N1CCN(c2ccncc2)CC1,17.58%
CCOC(=O)N1CCN(c2nc(NCCCO)c3ccccc3n2)CC1,4.564%
CCC1(CC)C(=O)NC(=O)N=C1Nc1ccc(C)cc1,20.12%
O=C(Nc1cnn(-c2ccccc2Cl)c1)NC1CCC(O)CC1 (stereo unspecified),21.55%
COC(=O)c1ccc(CNC(=O)CN2C[C@@H](NC(C)=O)[C@H](C(C)C)C2)o1,5.852%
COc1ccccc1C1(C(=O)NCCN2CCCCC2)CCOCC1,6.733%
CCNC(=O)c1ncn2c1CN(C)S(=O)(=O)c1ccccc1-2,8.5%
Cc1csc(C2CCCCN2C(=O)c2cn[nH]c2C)n1 (stereo unspecified),13.07%
Cc1nc2c(c(NC3CC3)n1)CCN(C(=O)CCO)CC2,17.46%
CSCCC(=O)NCc1cc2n(n1)CCCN(C1CCCCC1)C2,5.07%
Cn1c(SCC(N)=O)nnc1-c1csc2c1CCCC2,15.59%
Cc1ccc(NC2CCN(C(=O)c3c(C)noc3C)CC2)nn1,13.27%
Cc1cccc(CN2CCC3(CCN(c4cccnc4)C3=O)C2)n1 (stereo unspecified),18.52%
CC(NC(=O)N1CCN(c2cccs2)CC1)c1ccc(C#N)cc1 (stereo unspecified),15.94%
Cc1cc(C(=O)N2CCC3(C2)CN(c2cccnc2)C(=O)CN3C)[nH]n1 (stereo unspecified),0.8219%
COc1ccc(Cl)cc1CN(C)C(=O)CN1C(=O)CCC1C (stereo unspecified),13.55%
Cc1ccnc(NCc2ccccc2N2CCOCC2)n1,14.5%
CC(=O)N1C[C@H]2CCCN(c3ncc(C)cn3)[C@H]2C1,11.78%
CN(C)Cc1nc2c(o1)CN(C(=O)NCc1cccc(F)c1)C2,16.79%
Cc1ccc(C2(CN3CCN(Cc4cnc(C)n4C)CC3)CC2)cc1,6.962%
Cc1ccc(CNC(=O)C2CCN(C(=O)c3ccco3)CC2)n1C,-0.2793%
O=c1c2cccc(Cl)c2ncn1C1CCNC1 (stereo unspecified),9.964%
CC(=O)NC1CCN(c2c(C#N)cnc3c(C)cc(F)cc23)CC1,8.333%
Cc1ccc(-c2ccnc(NCC3(N(C)C)CCOCC3)n2)c(C)n1,1.805%
Cc1cccc(CCC(=O)Nc2ccnn2C2CCS(=O)(=O)C2)c1 (stereo unspecified),6.183%
c1cnc(N2CCOCC3(CN(Cc4nccs4)CCO3)C2)nc1 (stereo unspecified),17.02%
CC(C)(C)c1nnc(CN2CCCC2c2noc(C3CC3)n2)o1 (stereo unspecified),13.02%
CSc1ccc(C(=O)N2CCCC(Nc3ccc(F)cc3)C2)cc1 (stereo unspecified),8.027%
CN(c1ccccc1)S(=O)(=O)c1cc2c(c(C(=O)O)c1)OCCO2,9.712%
CN(C)S(=O)(=O)N1CC[C@]2(C[C@H](OCc3ccccn3)CO2)C1,9.273%
CCN1CCN(C(=O)c2cc(-c3ccc(C)o3)n[nH]2)[C@H]2CS(=O)(=O)C[C@H]21,12.13%
COCCn1cc(C(=O)NC2CCS(=O)(=O)C2)c2ccccc2c1=O (stereo unspecified),8.065%
CCS(=O)(=O)Cc1ccn(-c2cccc(F)c2)n1,6.25%
CN(C)C(=O)C1CCCN(C(=O)c2ccccc2-n2cc(CN)cn2)C1 (stereo unspecified),1.05%
CCn1c(-c2ccccc2)nn(CC(=O)NCCc2ccc(C)o2)c1=O,6.25%
COCCC1CCN(CC(C)n2cnc3ccccc32)CC1 (stereo unspecified),14.48%
CNC(=O)C1CCN(c2nc3nc[nH]c(=O)c3s2)CC1,13.35%
OCC1CCCN(Cc2c(C3CCCC3)[nH]c3ncccc23)C1 (stereo unspecified),7.91%
Nc1nccc(NCc2cc3n(n2)CCCN(C2CCCCC2)C3)n1,6.5%
O=C(c1n[nH]cc1Cl)N1CCCC(n2nnc3cc(F)ccc32)C1 (stereo unspecified),17.19%
O[C@H]1CN(CCCOc2ccccc2F)CC[C@@]12CCCO2,15.31%
Cc1nc(N2CCOCC2)nc2c1COCC21CCN(CC2CC2)C1 (stereo unspecified),-2.405%
COc1ccc(CN2CC[C@@H](O)[C@@H]2Cc2cnn(C)c2)cc1,-1.493%
CCCC(=O)NCCc1cc(N2CCN(C(C)=O)CC2)nc(C2CC2)n1,12.5%
O=C(C1CC(=O)N(C2CCCC2)C1)N1CCN(CCn2cccc2)CC1 (stereo unspecified),16.59%
CN(Cc1ccccc1)C(=O)c1cc2c(c(S(N)(=O)=O)c1)CCC2,0.2457%
COc1ccc(-c2nonc2N)cc1,7.838%
Cc1nnc2n1CCN(C(C(N)=O)c1ccc(F)cc1)C2 (stereo unspecified),16.7%
COc1ccc(-c2cc(C3CCCCCN3S(C)(=O)=O)on2)cc1 (stereo unspecified),1.744%
COc1c(C2CCCN2Cc2nccn2C)c(C)nn1C (stereo unspecified),6.593%
CSc1ccc(-c2noc(CN(Cc3ccccc3)C(C)C)n2)cc1,13.5%
Cc1csc(CN2CC[C@H]3C(=O)N(c4cccnc4)CCO[C@H]3C2)n1,10.1%

The last 4 entries again:

* COc1ccc(-c2cc(C3CCCCCN3S(C)(=O)=O)on2)cc1 (stereo unspecified) : 1.744%
* COc1c(C2CCCN2Cc2nccn2C)c(C)nn1C (stereo unspecified) : 6.593%
* CSc1ccc(-c2noc(CN(Cc3ccccc3)C(C)C)n2)cc1 : 13.5%
* Cc1csc(CN2CC[C@H]3C(=O)N(c4cccnc4)CCO[C@H]3C2)n1 : 10.1%

Measurements from “University of Dundee, Small-Polar-MMV Screening Library” (2021), ChEMBL document CHEMBL3988442.